The text below walks through data of article PMC11920102.

This assay addresses T1, FKBP-EndoB1^CT (Residues 269–365) (Homo sapiens) (UniProt Q9Y371).
T1 sequence: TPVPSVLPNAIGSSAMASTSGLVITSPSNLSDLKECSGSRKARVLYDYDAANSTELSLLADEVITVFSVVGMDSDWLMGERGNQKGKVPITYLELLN
As to the kind of experiment: rapamycin-induced rerouting to the OMM (live-cell confocal imaging); FKBP-tagged bait rerouted to the OMM-targeted FRB with rapamycin in live cells; relocalisation of the fluorescently tagged prey followed in real time.

Results are given in words; binding and its absence hold for the method and conditions named.

As for Dnm2 (Homo sapiens, Isoform 2)-mEGFP, the binding entry is on record as “no binding”.
